## Percent effect of library compounds

Source: ChEMBL document CHEMBL3988442, “University of Dundee, Small-Polar-MMV Screening Library” (2021).

The filed quantity is “Percent Effect” (%). The record does not define 0% and 100%; most values in the screen are far below 50% and negative numbers occur (in some assays of this library far below -100). This is an unselected part of the compounds tested. Two or more numbers in one place are separate tests of the same structure; such repeats can differ widely.

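Growth of Mycobacterium tuberculosis over 4 days (cholesterol / DPPC medium with tyloxapol); the read-out is not stated. Tested at 50 µM. Direction is inferred from retests: higher values go with more growth inhibition. Of about 69,000 compounds tested this way, about 370 (0.54%) reached 50% or more in at least one test.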

compound,Percent Effect
COc1cc(Cl)c(C)cc1NC(=O)CNc1ccn(CC(N)=O)n1,0.9067
CCC(=O)N1CCc2c(O)nc(C3CCCCN3C(=O)C3CC3)nc2C1 (stereo unspecified),3.587 & -12.48
CN(Cc1cnn(C)c1)Cc1nc(Cc2cccc(Cl)c2)no1,22.94
CC(C)NC(=O)N1CCC2(CC1)Cc1ccccc1CNC2=O,3.289
Cc1nc2[nH]cc(C(=O)N3CCCCC3c3ccc(F)cc3)c(=O)n2n1 (stereo unspecified),-25.06 & -4.482
O=C(NCCN1CCCCC1)C(c1ccccc1)N1CCCC1 (stereo unspecified),-15.25
CS(=O)(=O)c1ccc(CN2CCCC3(C2)C(=O)Nc2ccccc23)cc1 (stereo unspecified),-12.16
C/C=C(\C)CN1C[C@H](NC(=O)c2cc[nH]c2C)[C@@H](C2CC2)C1,5.564
CCOc1nc2cnccc2n(CC(=O)NCCc2ccccc2)c1=O,-6.559
Cn1cc(C(=O)N2CCCC(Cc3cncc4ccccc34)C2)cn1 (stereo unspecified),-5.828
CN(C)Cc1ccccc1CN(C)C(=O)c1ccoc1,-3.81
CCCn1cnnc1CN(C)C(=O)C1CCCN(C2CCN(C)CC2)C1 (stereo unspecified),-2.003
CCN(C)c1ncnc2c1CCN(S(=O)(=O)c1ccccc1)CC2.O=C(O)C(F)(F)F,-27.57
O=C(c1sccc1C1CC1)N1CCCN(Cc2cscn2)CC1,12.53
Cc1cc(N2CCC(O)(C(=O)O)CC2)nc2ccccc12,-8.591
COc1c(CNCC(O)c2ccccc2F)c(C(C)C)nn1C (stereo unspecified),-13.42
CCOCCNc1nc(-c2ccncc2)nc2c1CCNCC2,2.361 & -9.614
[H][C@@]12CNC(=O)N1CCN(Cc1cccc(OC)n1)C2,11.32
Cc1cc(CNCC2(O)CCOCC2)ccc1F,10.25
Cc1ccccc1C1(C(=O)NCCN2CCC(C)CC2)CCOCC1,-31.88
O=C(C1CCCN1Cc1nc(-c2ccco2)no1)N1CCSCC1 (stereo unspecified),-17.7
O=C(CCCn1cncn1)N1CCCCC1c1nccs1 (stereo unspecified),-16.97
[H][C@@]12CN(C(=O)N3CCOCC3)C[C@@]1([H])N(CC(C)C)C(=O)CO2,19.82
Cc1cccc(C(C(=O)NCCCc2ccccn2)N(C)C)c1 (stereo unspecified),-19.65
Cc1occc1C(=O)N1CCC2(CCN(Cc3cccs3)C2)CC1.O=C(O)C(F)(F)F,-16.96
CC(Oc1ccc(OCc2ncc(C(C)C)o2)cc1)C(N)=O (stereo unspecified),34.44 & 44.45
CC(=O)N1CCOC(c2c(C(=O)NCCN(C)C)sc3ccccc23)C1 (stereo unspecified),0.848
CN1CC2(CCN(C(=O)Cc3ccc(O)c(F)c3)CC2)CC1=O,-7.557 & -5.529
CCOC(=O)N1CCN(C(=O)C2Cc3ccccc3CN2C)CC1 (stereo unspecified),-4.603
CCN(CC1CCCO1)C(=O)Nc1cc(C)ccc1S(C)(=O)=O (stereo unspecified),-9.824
Cc1cccc(N(C)Cc2nc3c(cnn3C)c(=O)[nH]2)c1C,-12.18
Cn1nc2c(cc1=O)CN(Cc1nc(C3CC3)no1)CC2,-21.72
NCCc1cccc(CN2CCN(c3ccccc3)C(=O)C2)c1,2.141
Cc1cc(=O)[nH]cc1C(=O)N1CCN(C)c2ccccc2C1,-14.97
COCc1cncc2c1CCN(C(=O)c1ccoc1C)C2,-8.648
Cc1occc1C(=O)Nc1cc(N2CCNC2=O)ccc1Cl,-5.12
N#Cc1ccccc1N1CC2(CCCCN2CC2CC2)CC1=O.O=C(O)C(F)(F)F (stereo unspecified),-45.74
COCC(=O)N1CCC(c2nccnc2Oc2cccnc2C)CC1,-17.56
Cc1cnn(CC2CN(Cc3nc(-c4ccoc4)no3)CCO2)c1 (stereo unspecified),-3.752
COCc1nc(C(=O)NS(=O)(=O)c2ccc(F)c(F)c2)cs1,-19.3
Cc1cccc(N2CCN(C(=O)CC3(O)CCCC3)C(C)C2)n1 (stereo unspecified),5.83
COc1ccc(CCNC(=O)Nc2cc(C)nn2C)cc1,-12.21
CCCn1nc2c(cc1=O)CN(Cc1nc(CCOC)no1)CC2,-1.624 & -13
CN1C(=O)CC[C@]12CC[C@@H](NC(=O)NCc1cccnc1)CC2.O=C(O)C(F)(F)F,-14.05
Cc1cc(OCC(=O)NS(=O)(=O)c2c(C)noc2C)ccc1Cl,0.5952
O=C([C@@H]1CCCO1)N1CCOCC2(CCN(Cc3cccnc3)C2)C1 (stereo partly specified),-16.17
Cn1nnnc1SCCNC(=O)CC1CCc2ccccc21 (stereo unspecified),-12.1
CSCCC(NC(=O)c1ccc2ccccc2n1)C(=O)NC1CC1 (stereo unspecified),-2.171 & 0.0836
Cc1cc(NCC2(O)CCOCC2)c2ccccc2n1,-2.236
COc1ccc2c(c1)C(NCCc1ncc(C)s1)CCCO2 (stereo unspecified),20.73
CC(C)c1nc(C2CCCN2CCS(C)(=O)=O)no1 (stereo unspecified),6.363
Cc1cccc(COc2ccc(NC(=O)C(C)NC(N)=O)c(C)c2)c1 (stereo unspecified),-7.406
CCOC(=O)C1CCCN(c2ccc(-c3nc(C)no3)cn2)C1 (stereo unspecified),31.31
Cc1nc2c(c(NCC3Cc4ccccc4CN3C)n1)CCNCC2 (stereo unspecified),7.423
O=C(O)C(F)(F)F.O=C(O)C(F)(F)F.O=S(=O)(C1CC1)N1CCC2(CCCN(Cc3ccccn3)C2)C1 (stereo unspecified),-4.647
Cc1cccc(NC(=O)c2[nH]nc(C(C)C)c2Br)n1,5.509
COCCN(C)C(=O)c1ccccc1-n1cc(CN(C)C)cn1,-4.252
c1cc(-c2nnc3sc(CCN4CCCC4)nn23)ccn1,30.78
O=S(=O)(c1ccccc1Cl)N1CCC2(CC1)OCCS2,3.099
Cc1nc(CN2CCC(c3ccnn3CCO)CC2)oc1C,-3.82
CCn1cc(C(=O)N2CCCC(c3noc(C)n3)C2)cn1 (stereo unspecified),-11.05
CCOC(C)c1nc(Cn2cc(-n3cccc3)cn2)cs1 (stereo unspecified),37.06
CN(C)C(=O)c1ccc(C(C(=O)O)N(C)Cc2ccccc2Cl)cc1 (stereo unspecified),-3.117
CN(Cc1noc(C(C)(C)C)n1)CC1CCN(CCO)CC1,23.06
Cc1ncccc1Oc1nccnc1C1CCN(C(C)C)CC1,0.3691
Cc1ccc(Oc2ncccc2C(=O)N(C)CCCN(C)C)cc1,-31.63
CC(=O)N1CCC(C(=O)N2CCCC(Cc3cccc(C)n3)C2)CC1 (stereo unspecified),-32.59
Cc1nccn1CC1CCCN1S(=O)(=O)Cc1ccccc1 (stereo unspecified),-0.04066
Cc1ccc(CN2CCc3nnc(COCCN(C)C)n3CC2)o1.O=C(O)C(F)(F)F.O=C(O)C(F)(F)F,8.408
CO[C@H]1CN(C(=O)c2ccc(-c3ccccc3)[nH]2)CC[C@H]1N,-4.046
Cn1c(CN2CCC(OCc3cccnc3)CC2)cc2ccccc21,-12.07
O=C(NCc1nnc2n1CCC2)N1CCC2(CCCCC2)CC1,20.34
Cc1cc(CNc2ccc3nc(C4CC4)sc3c2)no1,20.11
CCCN1CCC=C(C2c3nc[nH]c3CCN2C(=O)c2ccco2)C1 (stereo unspecified),-3.623
Cc1nc2cc(-c3nccn3C)nn2c(N2CCCC2)c1C,11.22 & 17.17
Cc1oc(-c2ccco2)nc1CC(=O)N1CCC(C(O)C(F)(F)F)CC1 (stereo unspecified),4.166
COCCn1cc(NCc2cccc3cn[nH]c23)cn1,-3.254 & 6.518
Cc1cnn(C2CN(CC(=O)N(C)Cc3ccc(C)o3)C2)c1,-83.02
COCCc1ncc(CN2C[C@@H](C(=O)O)[C@H](C(C)C)C2)cn1,-33.26
CCN(CCO)C(=O)Nc1ccc(OCCOC)nc1,-37.72

7 of the entries, repeated:

{"compound": "O=C(C1CCCN1Cc1nc(-c2ccco2)no1)N1CCSCC1", "stereo": "stereo unspecified", "Percent Effect": -17.7}
{"compound": "O=C(CCCn1cncn1)N1CCCCC1c1nccs1", "stereo": "stereo unspecified", "Percent Effect": -16.97}
{"compound": "Cn1cc(C(=O)N2CCCC(Cc3cncc4ccccc34)C2)cn1", "stereo": "stereo unspecified", "Percent Effect": -5.828}
{"compound": "Cc1cccc(NC(=O)c2[nH]nc(C(C)C)c2Br)n1", "Percent Effect": 5.509}
{"compound": "COCCc1ncc(CN2C[C@@H](C(=O)O)[C@H](C(C)C)C2)cn1", "Percent Effect": -33.26}
{"compound": "Cn1nc2c(cc1=O)CN(Cc1nc(C3CC3)no1)CC2", "Percent Effect": -21.72}
{"compound": "CCCn1cnnc1CN(C)C(=O)C1CCCN(C2CCN(C)CC2)C1", "stereo": "stereo unspecified", "Percent Effect": -2.003}